# Experimental data taken from US20160200847A1, “CLICKABLE POLYMERS AND GELS FOR MICROARRAY AND OTHER APPLICATIONS” (priority 2014, published 2016).
# A number of entries come with more than one value. Only these are listed. The source may hold further records. The values listed for one entry differ, and nothing given here explains why; dose, time, organism, isomer or construct need not be as stated for each record.
# Target: Concanavalin A (ConA) (Canavalia ensiformis, UniProt P02866)
# Settings: read-out: KD, surf
row,Structure (SMILES),Kd
1,CN(Cc1ccccc1)C(=O)C1CC(OCCN=[N+]=[N-])C(O[C@H]2O[C@H](CO)[C@@H](O)[C@H](O)[C@@H]2O)CC1C(=O)N(C)Cc1ccccc1 (some centres unmarked),0.34 nM and 0.85 nM
2,[N-]=[N+]=NCCOC1CC(C(=O)NC2CCCC2)C(C(=O)NC2CCCC2)CC1O[C@H]1O[C@H](CO)[C@@H](O)[C@H](O)[C@@H]1O (some centres unmarked),0.4 nM and 0.98 nM
3,[N-]=[N+]=NCCOC1CC(C(=O)NCCCN2CCCC2=O)C(C(=O)NCCCN2CCCC2=O)CC1O[C@H]1O[C@H](CO)[C@@H](O)[C@H](O)[C@@H]1O (some centres unmarked),0.88 nM and 1.77 nM
4,[N-]=[N+]=NCCOC1CC(C(=O)NC2CC2)C(C(=O)NC2CC2)CC1O[C@H]1O[C@H](CO)[C@@H](O)[C@H](O)[C@@H]1O (some centres unmarked),0.67 nM and 1.71 nM
5,[N-]=[N+]=NCCOC1CC(C(=O)N2CCOCC2)C(C(=O)N2CCOCC2)CC1O[C@H]1O[C@H](CO)[C@@H](O)[C@H](O)[C@@H]1O (some centres unmarked),0.34 nM and 0.79 nM
